Results are given in words; binding and its absence hold for the method and conditions named. In cells and extracts the contact can be indirect. Here binding means that the protein was enriched with, or labelled near, the bait; the list need not be complete. Sequences can lack the tags named with a protein.

The assay addresses T1, KIFC1, bait of the IP-MS screen (UniProt Q9BW19).
T1 sequence: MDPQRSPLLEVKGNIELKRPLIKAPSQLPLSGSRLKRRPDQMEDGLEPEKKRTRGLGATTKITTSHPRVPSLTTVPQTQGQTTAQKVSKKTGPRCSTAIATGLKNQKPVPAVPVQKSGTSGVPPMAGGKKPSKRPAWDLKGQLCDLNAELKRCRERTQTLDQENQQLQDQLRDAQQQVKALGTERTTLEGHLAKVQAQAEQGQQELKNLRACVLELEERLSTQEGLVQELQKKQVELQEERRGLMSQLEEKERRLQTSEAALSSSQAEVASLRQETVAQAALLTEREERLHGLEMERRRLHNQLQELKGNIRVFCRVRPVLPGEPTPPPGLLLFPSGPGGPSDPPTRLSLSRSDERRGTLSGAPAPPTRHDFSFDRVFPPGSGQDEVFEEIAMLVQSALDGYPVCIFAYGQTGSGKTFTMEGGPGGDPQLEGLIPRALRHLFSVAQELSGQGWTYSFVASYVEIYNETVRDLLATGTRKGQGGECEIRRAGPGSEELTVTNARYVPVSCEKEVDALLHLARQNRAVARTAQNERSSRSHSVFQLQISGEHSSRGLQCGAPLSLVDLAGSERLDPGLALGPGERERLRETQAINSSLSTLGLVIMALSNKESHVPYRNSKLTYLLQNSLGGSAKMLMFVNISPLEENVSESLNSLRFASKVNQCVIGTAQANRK
Put plainly: affinity purification with mass spectrometry; IP-MS with KIFC1 as bait; Orbitrap Exploris 480; search against the reviewed SwissProt human proteome; cells not given.

For CDC42EP, the binding result is listed as “binds”.

B1: MYCBP (hit of the IP-MS screen) (protein, UniProt Q99417 1-103)
chain: MAHYKAADSKREQFRRYLEKSGVLDTLTKVLVALYEEPEKPNSALDFLKHHLGAATPENPEIELLRLELAEMKEKYEAIVEENKKLKAKLAQYEPPQEEKRAE
As to B1, the binding entry is listed as “binds”.

B2: SMG8 (protein, UniProt Q8ND04 1-991)
chain: MAGPVSLRDLLMGASAWMGSESPGGSPTEGGGSAAGGPEPPWREDEICVVGIFGKTALRLNSEKFSLVNTVCDRQVFPLFRHQDPGDPGPGIRTEAGAVGEAGGAEDPGAAAGGSVRGSGAVAEGNRTEAGSQDYSLLQAYYSQESKVLYLLLTSICDNSQLLRACRALQSGEAGGGLSLPHAEAHEFWKHQEKLQCLSLLYLFSVCHILLLVHPTCSFDITYDRVFRALDGLRQKVLPLLKTAIKDCPVGKDWKLNCRPCPPRLLFLFQLNGALKVEPPRNQDPAHPDKPKKHSPKRRLQHALEDQIYRIFRKSRVLTNQSINCLFTVPANQAFVYIVPGSQEEDPVGMLLDQLRSHCTVKDPESLLVPAPLSGPRRYQVMRQHSRQQLSFHIDSSSSSSSGQLVDFTLREFLWQHVELVLSKKGFDDSVGRNPQPSHFELPTYQKWISAASKLYEVAIDGKEEDLGSPTGELTSKILSSIKVLEGFLDIDTKFSENRCQKALPMAHSAYQSNLPHNYTMTVHKNQLAQALRVYSQHARGPAFHKYAMQLHEDCYKFWSNGHQLCEERSLTDQHCVHKFHSLPKSGEKPEADRNPPVLYHNSRARSTGACNCGRKQAPRDDPFDIKAANYDFYQLLEEKCCGKLDHINFPVFEPSTPDPAPAKNESSPAPPDSDADKLKEKEPQTQGESTSLSLALSLGQSTDSLGTYPADPQAGGDNPEVHGQVEVKTEKRPNFVDRQASTVEYLPGMLHSNCPKGLLPKFSSWSLVKLGPAKSYNFHTGLDQQGFIPGTNYLMPWDIVIRTRAEDEGDLDTNSWPAPNKAIPGKRSAVVMGRGRRRDDIARAFVGFEYEDSRGRRFMCSGPDKVMKVMGSGPKESALKALNSDMPLYILSSSQGRGLKPHYAQLMRLFVVVPDAPLQIILMPQVQPGPPPCPVFYPEKQEITLPPDGLWVLRFPYAYVTERGPCFPPKENVQLMSYKVLRGVLKAVTQ
In the case of B2, the binding result is recorded as “binds”.

These data come from article PMC12084419.
